Measurements as given in PubChem BioAssay AID493014 (National Center for Advancing Translational Sciences (NCATS), 2011).
The whole screen tested about 340,000 compounds, of which about 170 (0.05%) were called active. Inconclusive results, whose numbers are uncertain, are shown with a selection of clear calls. The call rests on the fitted dose curve; in most records, active means well fitted inhibition curve with a large enough effect in the signal ratio, with a control signal flat (not every such curve was filed as active); inconclusive means small, poorly fitted or top-dose-only effect, or effect the other way, or a change in a side signal; inactive means flat fitted curve, though single readings scatter; the % refers to the signal ratio. Potencies beside an inconclusive call are fits to weak or partial responses and may not hold up.

Assay: qHTS Assay to Find Inhibitors of Chronic Active B-Cell Receptor Signaling;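 on activity change, negative = inhibition: plate controls were basal doxycycline-induced cells for no effect and cells given 10 µM MG132 for full effect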
Conditions: ABC-DLBCL IkBa-CBG/CBR reporter, luminescence ratio (green luciferase fused to IkBa over red control in TMD8 lymphoma cells), 4 h; activity change, negative = inhibition: at 46.1 µM (top of the series)
How it was run: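 Cell line TMD8 (human ABC DLBCL), stably expressing tet-inducible CBG68-IkBa fusion and CBR; IMDM/0.5% FBS; cpd up to 46 uM; dox induction, 4 h, 37C/5% CO2; dual luminescence; green/red ratio; MG132 control.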
Potency means the concentration at half of the fitted maximal effect.

SMILES | activity change, negative = inhibition | Potency
O=c1c2ccccc2nc(-c2cccs2)n1-c1ccccc1 | inconclusive: 27.3% | –
Cc1cc(C=O)c(C)n1CC1CCCO1 (configuration not stated) | – | inconclusive: 20.6 µM [rising, partial curve, poor fit]
CC(=O)c1cn(Cc2ccccc2F)c2ccccc12 | inconclusive: -11.1% | –
O=CC(Cl)P(=O)(N1CCCCC1)N1CCCCC1 (configuration not stated) | – | inconclusive: 14.1 µM [falling, partial curve, poor fit]
Cc1cccc(OCC(=O)N2CCN(Cc3cccnc3)CC2)c1 | – | inconclusive: 0.708 µM [falling, full curve, poor fit]
O=C(CCN1CCCCC1)NCC(=O)Nc1ccc(Br)cc1C(=O)c1ccccc1 | – | inconclusive: 11.2 µM [falling, partial curve, poor fit]
Cc1ccc(OCC(=O)N2CCN(C)CC2)c(Br)c1 | inactive | –
COc1ccccc1OP(=O)(Nc1cccnc1)Oc1ccccc1OC | – | inconclusive: 10.3 µM [falling, partial curve, poor fit]
COC(=O)C1=C(c2ccc3ccccc3c2)C[C@@H]2CC[C@H]1N2C(=O)N1CCC(O)CC1 | inactive | –
CC(C)C[C@H]1C(=O)N2CCCC2[C@]2(O)O[C@](NC(=O)[C@@H]3C=C4c5cccc6[nH]cc(c56)CC4N(C)C3)(C(C)C)C(=O)N12 (some centres not stated) | inconclusive: 2.16% | –
COC1CCCCC1NCCc1ccccc1 (configuration not stated) | inconclusive: 2.91% | –
CCn1c(O)c(/C=N/NC(=O)c2ccccc2)c(=O)[nH]c1=S | – | inconclusive: 35.5 µM [rising, partial curve]
C=CCSc1nc2c(c(-c3ccsc3)c1C#N)CN(C)CC2 | inconclusive: 7.42% | –
CS(=O)(=O)Nc1ccc(Cc2noc(-c3ccc4[nH]cc(CCN)c4c3)n2)cc1 | inconclusive: -6.47% | –
COc1cc(/C=C/c2nc3ccccc3c(=O)n2-c2ccc(O)cc2)ccc1O | – | inconclusive: 14.1 µM [falling, partial curve]
O=C1NC(=O)N(c2ccc3c(c2)OCO3)C(=O)/C1=C\c1ccc(-c2ccccc2C(=O)O)o1 | inactive | –
CCCCn1c(O)c(C(CC)=NCc2cc(OC)cc(OC)c2)c(=O)[nH]c1=O | inconclusive: -0.115% | –
O=C(Nc1ccc(Br)cc1)c1nn(C23CC4CC(CC(C4)C2)C3)cc1Br | inactive | –
O=c1[nH]sc2cc(F)ccc12 | – | inconclusive: 6.31 µM [rising, full curve, poor fit]
CN(C)C(=O)Oc1ccc2oc(=O)cc(-c3cc4ccccc4o3)c2c1 | inconclusive: -0.107% | –
COCCCn1c(N)c(C(=O)NCCC(C)C)c2nc3ccccc3nc21 | inconclusive: 17.1% | –
COc1ccc(N2C(=O)/C(=C/C=C/c3ccccc3[N+](=O)[O-])C(=O)NC2=S)cc1 | inactive | –
N=Cc1c(O)n(-c2ccc(C34CC5CC(CC(C5)C3)C4)cc2)c(=O)[nH]c1=O | inactive | –
Cn1c(O)c(/C=N/N2CCOCC2)c(=O)n(C)c1=S | – | inconclusive: 7.08 µM [falling, partial curve]

SMILES | activity change, negative = inhibition | Potency
Cc1nc2cc(F)ccc2n1C1CCN(Cc2nnnn2CCc2ccccc2)CC1 | – | inconclusive: 14.6 µM [falling, partial curve, poor fit]
CCCCCCC(=O)N/N=C/c1c(O)n(CCc2ccccc2)c(=O)[nH]c1=O | inconclusive: -29.1% | –
CCN1CCN(Cc2cc(OC)c(OC)cc2[N+](=O)[O-])CC1 | inconclusive: -2.22% | –
CCCCn1c(O)c(C(C)=NCC2CCCO2)c(=O)[nH]c1=O (configuration not stated) | – | inconclusive: 8.2 µM [rising, partial curve, poor fit]
O=C1NC(=O)N(c2ccc3c(c2)OCO3)C(=O)/C1=C\c1ccc(N2CCCCC2)o1 | inconclusive: -5.09% | –
CC(C)[C@H]1C(=O)N2CCC[C@H]2[C@]2(O)O[C@](NC(=O)[C@@H]3C=C4c5cccc6[nH]cc(c56)C[C@H]4N(C)C3)(C(C)C)C(=O)N12 | inconclusive: 17.6% | –
CCC(=NC(C)c1ccccc1)c1c(O)n(C)c(=O)n(C)c1=O (configuration not stated) | – | inconclusive: 1.46 µM [rising, full curve, poor fit]
CNc1ccc2nc3ccccc3[n+](C)c2c1 | inconclusive: 12.4% | –
O=c1[nH]c(=O)n(CCc2ccc(F)cc2)c(O)c1C=NCCCn1ccnc1 | inconclusive: 3.51% | –
CC(C)(C)c1cc(C(=O)CCN2CCOCC2)cc(C(C)(C)C)c1O | – | inconclusive: 17.8 µM [falling, partial curve]
Cc1ccsc1-c1nc(CSCC(=O)N2CCC3(CC2)OCCO3)c(C)o1 | inactive | –
Cc1ccc(S(=O)(=O)N2CCN(C(=O)Cn3c(=O)oc4ccccc43)CC2)cc1 | – | inconclusive: 7.31 µM [falling, single point]
CC(=O)OC(C)(C)/C=C/C(=O)[C@](C)(O)C1[C@H](O)C[C@@]2(C)C3CC=C4C(C[C@H](O)C(=O)C4(C)C)[C@]3(C)C(=O)C[C@]12C (some centres not stated) | – | inconclusive: 23.1 µM [falling, partial curve]
O=C1NC(=O)C(=Cc2ccc(-c3ccc(S(=O)(=O)N4CCOCC4)cc3)o2)C(=O)N1 | inconclusive: 1.58% | –
COC(=O)C1=C(c2ccc(OC(F)(F)F)cc2)C[C@@H]2CC[C@H]1N2C(=O)N1CCOCC1 | inconclusive: -2.04% | –
CCNC(=O)NC(=O)C(C)OC(=O)c1c(C)nn(Cc2ccccc2Cl)c1Cl (configuration not stated) | inconclusive: -15.5% | –
CC12CN3CCN(C1)CC(C)(C3)C2=NO | inconclusive: 3.43% | –
COC(=O)C1=C(c2ccc3ccccc3c2)C[C@@H]2CC[C@H]1N2C(=O)NC1CCCCC1 | inconclusive: -3.65% | –
Cc1nc(-c2ccccn2)sc1C(=O)O | – | inconclusive: 0.398 µM [rising, full curve, poor fit]
CCN(CC)C(=O)Oc1ccc(OC(=O)N(CC)CC)cc1 | inconclusive: -8.76% | –
N#CC(C#N)=NNc1ccc(S(N)(=O)=O)cc1 | inactive | –
Oc1ccc(/C=N/NP(=S)(c2ccccc2)c2ccccc2)cc1 | inconclusive: 19.6% | –
O=C1NC(=O)N(Cc2ccccc2)C(=O)/C1=C/c1cnc(-c2ccccc2)nc1 | inconclusive: -17.7% | –

A second format for some results above.

| SMILES | activity change, negative = inhibition | Potency |
| --- | --- | --- |
| N#CC(C#N)=NNc1ccc(S(N)(=O)=O)cc1 | inactive | – |
| O=C1NC(=O)N(Cc2ccccc2)C(=O)/C1=C/c1cnc(-c2ccccc2)nc1 | inconclusive: -17.7% | – |
